Data on 20 compounds can be found in the supplement of paper PMC12889115.

The other results are listed elsewhere or left out. Values are raw readings; no control value is given beside them.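 First-pass screen: polymyxin B was added at a level that permeabilizes the Salmonella outer membrane while sparing the inner membrane. DMSO wells, with and without polymyxin B, defined maximum growth. Because plates differed from one another, each plate's data were ranked separately and the compounds with the lowest OD600 were carried forward as hits.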

The assay concerns Salmonella enterica serovar Typhimurium SL1344. Nature of the assay: bacterial growth OD600 after 18 h with compound and polymyxin B; higher = more bacterial growth (less inhibition). The following applies: 50 µM, Mueller-Hinton broth.

For `O=C(NC(C1CC1)C1CC1)C1CCCN(C2CCN(C(=O)C3CC3)CC2)C1` (stereo not given), the “bacterial growth OD600” value (polymyxin B 0.75 µg/mL) amounted to 0.841. As for `COc1cccc(CN2CCN(CC3CCCCC3)C(CCO)C2)c1OC` (stereo not given), the “bacterial growth OD600” value (polymyxin B 1 µg/mL) turned out to be 0.907. As for `CC1(CNc2nc3nonc3nc2N2CCSCC2)COC1`, for the setting “polymyxin B 0.75 µg/mL”, the “bacterial growth OD600” value was determined as 0.774. `COC(=O)C1CCCCN1C(=O)c1csc2nc(-c3ccccc3C)cn12` (stereo not given): under “polymyxin B 1 µg/mL”, the “bacterial growth OD600” value was 0.811. In the case of `CN(Cc1ccsc1)C(=O)CC1(c2ccccc2)CC(=O)N(CCCOc2cccnc2)C1=O` (stereo not given), for the setting “polymyxin B 0.75 µg/mL”, the “bacterial growth OD600” value stood at 0.682. On to `CCn1ccnc1CN1CCCC(N2CCN(c3ccccc3OC)CC2)C1` (stereo not given), for which the “bacterial growth OD600” value (polymyxin B 1 µg/mL) was found to be 0.895. Turning to `CC1(C)Cc2nc(C(C)(C)C)ncc2C(NS(=O)(=O)c2ccccc2)C1` (stereo not given), under “polymyxin B 1 µg/mL”, the “bacterial growth OD600” value is 0.864. `Cc1csc(C(C)N(C)C(=O)c2cc(NS(=O)(=O)N(C)C)cc3nc(CC(C)C)n(C)c23)n1` (stereo not given): the “bacterial growth OD600” value (polymyxin B 0.75 µg/mL) was determined as 0.807. As for `COc1ccc(CCN2CCCC(CN(C)C(=O)Nc3ccccc3F)C2)cc1` (stereo not given), the “bacterial growth OD600” value (polymyxin B 1 µg/mL) came to 1.19.

With `CN(C)c1ccc(-c2nc(COc3ccccc3)no2)cn1`, under “polymyxin B 1 µg/mL”, the “bacterial growth OD600” value amounted to 0.903.

For `Cc1nc2ccccc2n1Cc1cc(C(=O)NCCOC(C)C)n[nH]1`, the “bacterial growth OD600” value (polymyxin B 1 µg/mL) amounted to 0.918.

In the case of `COC(=O)C1CCN(C(=O)c2cc(NS(C)(=O)=O)cc3ncn(CCc4ccccc4)c23)CC1`, where the note is “polymyxin B 0.75 µg/mL”, the “bacterial growth OD600” value is 0.789.

On to `O=C(c1cccs1)N1Cc2ccccc2OC(c2ccccc2)C1` (stereo not given), for which the “bacterial growth OD600” value (polymyxin B 0.75 µg/mL) worked out at 0.015. As to `COCC(=O)Nc1cc(C(=O)NCc2ccc(C)c(F)c2)cc2ncn(CCc3ccccc3)c12`, the “bacterial growth OD600” value (polymyxin B 0.75 µg/mL) came out at 0.731. Turning to `COCCn1c(CN2CCCCO2)cnc1S(=O)(=O)CC(C)(C)C`, under “polymyxin B 1 µg/mL”, the “bacterial growth OD600” value was 1.08. Regarding `COc1ccc(CN2CCCC(CO)(Cc3ccccc3)C2)c(C)c1C` (stereo not given), the “bacterial growth OD600” value (polymyxin B 1 µg/mL) turned out to be 0.795. Still for that read-out and setting: with `COc1ccc(NC2CCCN(C(=O)c3ccccc3C(F)(F)F)C2)cc1OC` (stereo not given) the figure was 1.06; with `O=C(NCC1CC(=O)N(C2CC2)C1)c1ccc2oc(Cc3ccc(Cl)cc3)nc2c1` (stereo not given), 0.975. For the compound `CCn1cc(CN2CCC(c3ccc(F)c(F)c3)Sc3ccccc32)c(C)n1` (stereo not given), the “bacterial growth OD600” value (polymyxin B 0.75 µg/mL) was -0.001. `CCOc1cc(CN2CCC(C(Cc3ccccc3F)N(C)C(=O)c3ccoc3C)CC2)ccc1O` (stereo not given): the “bacterial growth OD600” value (polymyxin B 0.75 µg/mL) was 0.861.
